Reference: paper PMC7819943, “Rice protein-binding microarrays: a tool to detect cis-acting elements near promoter regions in rice”
This is one part of the list.

Molecular target: T1, OsSMF1 (Oryza sativa, UniProt Q6ZLB0 1-436)
T1 sequence: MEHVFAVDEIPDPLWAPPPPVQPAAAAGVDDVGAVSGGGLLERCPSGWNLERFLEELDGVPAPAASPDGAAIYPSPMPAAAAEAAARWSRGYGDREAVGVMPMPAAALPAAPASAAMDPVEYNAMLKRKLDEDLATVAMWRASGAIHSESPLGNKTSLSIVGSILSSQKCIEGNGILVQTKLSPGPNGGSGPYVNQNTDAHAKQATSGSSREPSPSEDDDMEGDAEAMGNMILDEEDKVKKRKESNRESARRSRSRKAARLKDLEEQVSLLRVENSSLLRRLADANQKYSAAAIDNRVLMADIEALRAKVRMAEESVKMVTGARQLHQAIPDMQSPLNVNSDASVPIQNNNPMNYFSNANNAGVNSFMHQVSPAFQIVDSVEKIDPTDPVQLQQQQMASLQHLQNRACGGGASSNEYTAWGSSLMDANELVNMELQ
Assay: protein-binding microarray (RPBM); PBS, 2% BSA, 51.3 ng/ul salmon testes DNA, 50 uM zinc acetate, 200 nM TF, 25 C, 1 h; high values mean tight binding
Conditions: protein: recombinant; tags: N-terminal polyhistidine and DsRed monomer fusion (pET32a); chain copies: 2; label: CyDye5-dUTP incorporated in the synthesized complementary strand; 3' TTTTT single-stranded linker to array surface; dsDNA, one strand shown
Outline: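 Per-feature fluorescence intensity (arbitrary units), read on an Axon 4000B scanner, is the binding signal. Transcription factors carrying an N-terminal polyhistidine tag and DsRed fusion were expressed in E. coli BL21-CodonPlus and purified on Ni–NTA. A custom Agilent array, made double-stranded by primer extension with Cy5-dUTP and blocked with 2% BSA, was incubated with 200 nM protein in PBS, 2% BSA, salmon testes DNA and 50 µM zinc acetate at 25 °C for 1 h and then washed.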

Sequence	binding signal
TAAGCCATATATAATCACACTGTACACTGATTTTCAGACTCGGAGTCACCTAGTGCAG	3450 fluorescence intensity (a.u.)
ACCGACCGCGGTGCTCCCTGAGGGCTGGGCCATGCTACGGCGGAGTCACCTAGTGCAG	3940 fluorescence intensity (a.u.)
GTCTCTCTGTGTTGTACACGTTTTCTCCAGCTACACCTTGCGGAGTCACCTAGTGCAG	5740 fluorescence intensity (a.u.)
ACATGGGCCGCAATCAGGTCACGTGGCTAGGCCTTGGGCCCGGAGTCACCTAGTGCAG	3230 fluorescence intensity (a.u.)
CATTATCTAAGTTTCTTTACGTCATTATCTTCGTTTAATTCGGAGTCACCTAGTGCAG	3230 fluorescence intensity (a.u.)
TAATACTACTACTCCTACCCTGACGCGTGACCCGGCCGGTCGGAGTCACCTAGTGCAG	3430 fluorescence intensity (a.u.)
CTAGTCTAGCCAAACGTAACCACTGTCATGATAGCAATACCGGAGTCACCTAGTGCAG	4520 fluorescence intensity (a.u.)
GAAATCGGATCCCCTTGACGCAATCCTCTGGTTGGCATGACGGAGTCACCTAGTGCAG	3170 fluorescence intensity (a.u.)
CCGGTATTTGTAAATGGCCAAAGGAAGCAAACCATTAGGCCGGAGTCACCTAGTGCAG	3320 fluorescence intensity (a.u.)
AGGAGCTCCTGTCAGTTGAGAAGCGACAGTTATAAAATGTCGGAGTCACCTAGTGCAG	3510 fluorescence intensity (a.u.)
AGCGGTGCTGTCGTAGGGCTAGTCGCCACCTTCGGCTCTACGGAGTCACCTAGTGCAG	17200 fluorescence intensity (a.u.)
GCCCACAATGTCGTCCGTCCAGCGCAGCGCAAAACTGGGGCGGAGTCACCTAGTGCAG	3560 fluorescence intensity (a.u.)
TATGTCACCGGATTTGGCCATGTCACTGGACGCTGCGGTCCGGAGTCACCTAGTGCAG	24700 fluorescence intensity (a.u.)
TCCACTCTCTGACTTTAATATTTACCACACGTTTGCAACTCGGAGTCACCTAGTGCAG	3370 fluorescence intensity (a.u.)
GAAGGGTGGGGCACGCACGCCACGCGGCGGAAGCGGTGCGCGGAGTCACCTAGTGCAG	4600 fluorescence intensity (a.u.)
TGGTTGTCGTCGTCGTAGTCTTGTGGGTTGCGTGCGTGCGCGGAGTCACCTAGTGCAG	3930 fluorescence intensity (a.u.)
GTCTCTGGTGTCACTGTCACACGTAGCTTTTGATGAAGTTCGGAGTCACCTAGTGCAG	3360 fluorescence intensity (a.u.)
GTGCTGAGTGCTGACTGGAAGCAGACAAGAACTTCTCTAGCGGAGTCACCTAGTGCAG	3930 fluorescence intensity (a.u.)
TCCATCCATTTCACCATGTGTTTCCATGTAAGAATGTGATCGGAGTCACCTAGTGCAG	3490 fluorescence intensity (a.u.)
GTTATTGGAGCGGCTGAGTCAGAAATTTGGCCTTCAGAGACGGAGTCACCTAGTGCAG	7590 fluorescence intensity (a.u.)
TGCCAGTGCTATCCGTCGCCACCTACCACCTTACAACGGTCGGAGTCACCTAGTGCAG	3530 fluorescence intensity (a.u.)

Sequence	binding signal
ATTCAGCGTCATGCTATTTGGCGCTGAGGTGTCTAAATTCCGGAGTCACCTAGTGCAG	3820 fluorescence intensity (a.u.)
ATATGGGTGCTAGCCACGCAATTGCGCGGGCCACCCAGTTCGGAGTCACCTAGTGCAG	4130 fluorescence intensity (a.u.)
ATGAAGCGGGAGCGACAGGAGATGATGGATTTCATCGACGCGGAGTCACCTAGTGCAG	3840 fluorescence intensity (a.u.)
ACACGATGGCTATCACACAACACGTGAGCTCATGCGTTTACGGAGTCACCTAGTGCAG	3340 fluorescence intensity (a.u.)
TCCTCCCCGTCACCGTCACCGTCACCGTCTCGTCTCCGTCCGGAGTCACCTAGTGCAG	7090 fluorescence intensity (a.u.)
GTTAATGGTGACTTTATTTTCGTCTGTTACAAAACGGAAGCGGAGTCACCTAGTGCAG	3250 fluorescence intensity (a.u.)
CAGCAAATTACTCTCCGTAACCTGTTAATATGTTCTCAAGCGGAGTCACCTAGTGCAG	28800 fluorescence intensity (a.u.)
ACGGCTACCACCACACATCCTTACTCGCCGACATGTGGGCCGGAGTCACCTAGTGCAG	3310 fluorescence intensity (a.u.)
CTCTCTGGGTTGACTTACCGTTTTAGACAAGGGCACGGTCCGGAGTCACCTAGTGCAG	20100 fluorescence intensity (a.u.)
GAAAGCAGCGGCGCGGGGTTTTCGAGTGGGTTTGGGGATACGGAGTCACCTAGTGCAG	3430 fluorescence intensity (a.u.)
TCATCGTCCATGTGGCATGCCATGTAGGCAAGACCACGGTCGGAGTCACCTAGTGCAG	10600 fluorescence intensity (a.u.)
CACGGCCTCACCTCCCAGCCCGCGAGCACCGGCGGACGGACGGAGTCACCTAGTGCAG	42400 fluorescence intensity (a.u.)
AGTTTTGGAGTCTACATGACGTTTTATGTTTGGCAACGCCCGGAGTCACCTAGTGCAG	3340 fluorescence intensity (a.u.)
GCTGAGTACACACTGTGTCTATGGGCCACTGACTAGGAGACGGAGTCACCTAGTGCAG	3140 fluorescence intensity (a.u.)
AAAATAAAATTTATTAATAATATTTTATCTATATTTACGACGGAGTCACCTAGTGCAG	30400 fluorescence intensity (a.u.)
CTAGCACGCAGTAACAATATAACGACGTGGAATAGCTCCTCGGAGTCACCTAGTGCAG	3210 fluorescence intensity (a.u.)
TACACACCATAATTGAAGTATTGAGTCACACATAATTGAACGGAGTCACCTAGTGCAG	3220 fluorescence intensity (a.u.)
CTGTGGTAGGGGAGAATGAGGGCACACATGCGGGTTTAAGCGGAGTCACCTAGTGCAG	3680 fluorescence intensity (a.u.)
AAACACCCACATAATTCCAGATGACACGTGGTATACAAGTCGGAGTCACCTAGTGCAG	17400 fluorescence intensity (a.u.)
TGCAACGTTGGAGGAGTGCACAGTCATGGAACAACTTGATCGGAGTCACCTAGTGCAG	4270 fluorescence intensity (a.u.)
CCCACTGCCACAGCCGCCGCAGCTCCCCGCCGTCATCGTCCGGAGTCACCTAGTGCAG	3390 fluorescence intensity (a.u.)

Pulled one by one from the list above, three records:
Sequence	binding signal
TGCAACGTTGGAGGAGTGCACAGTCATGGAACAACTTGATCGGAGTCACCTAGTGCAG	4270 fluorescence intensity (a.u.)
AAACACCCACATAATTCCAGATGACACGTGGTATACAAGTCGGAGTCACCTAGTGCAG	17400 fluorescence intensity (a.u.)
ACGGCTACCACCACACATCCTTACTCGCCGACATGTGGGCCGGAGTCACCTAGTGCAG	3310 fluorescence intensity (a.u.)
